Values quoted from earlier work in patent US20210315829A1, “Invention Relating to Nanoparticles Containing Taxanes for Administration by Inhalation” (Justus-Liebig-Universität Gießen, priority 2017, published 2021).

Question: With `CC(=O)O[C@H]1C(=O)[C@@]2(C)[C@H]([C@H](OC(=O)c3ccccc3)[C@]3(O)C[C@H](OC(=O)[C@H](O)[C@@H](NC(=O)c4ccccc4)c4ccccc4)C(C)=C1C3(C)C)[C@]1(OC(C)=O)CO[C@@H]1C[C@@H]2O` [paclitaxel] as the molecule, how does the solubility in water read?
Answer: only sparingly soluble
